Data reported in patent publication EP0392976A1, “Monoclonal antibodies to tetracyclic compounds, processes for their production, and applications” (CIBA-GEIGY AG, priority 1989, dated 1990).

Key:
Test in all cases: inhibition enzyme immunoassay: inhibition of MAb binding to surface bound R-(-)-oxaprotiline-mucin conjugate
Set-up in all cases: species or system mouse
Settings in all cases: read-out: IC₅₀
[1] = molecular target: MAb 1219S59.11
Procedure: (§1) The affinities of the monoclonal antibodies of the invention to R-(-)-oxaprotiline can for example be determined in an inhibition enzyme immunoassay according to Friguet et al. (J. Immunol. Methods 77, 305, 1985) wherein the monoclonal antibody to be tested is preincubated with R-(-)-oxaprotiline and, in a second step, exposed to a solid phase coated with an adsorbable conjugate of R-(-)-oxaprotiline, e.g. a protein conjugate. The fraction of the monoclonal antibody not engaged in immunocomplexes binds to the solid phase and is quantified by a secondary antibody-enzyme conjugate directed against the monoclonal antibody. The affinities are expressed as IC₅₀ (inhibition concentration) values, i.e. the concentration of free antigen causing a 50 % inhibition of antibody binding to the solid phase antigen.
(§2) The selectivity of the monoclonal antibodies of the invention is tested by analyzing inhibition of monoclonal antibody binding to R-(-)-oxaprotiline by structurally similar compounds, e.g. by other dibenzobicyclo[2.2.2]octadiene compounds which differ from R-(-)-oxaprotiline by chemical modifications of the tetracyclic ring structure and/or the aliphatic side chain, by therapeutic compounds lacking the dibenzobicyclo[2.2.2]octadiene skeleton which are potentially used in combination with the antidepressant, and by the enantiomer S-(+)-oxaprotiline. This can be done, for example, in an inhibition enzyme immunoassay wherein the monoclonal antibodies of the invention are preincubated with any of the soluble compounds listed above and the incubation mixture is then tested in the enzyme immunoassay described above.
(§3) The conjugate solution (0.66 mg/ml) is diluted 1000-fold in coating buffer pH 9.8 (477 mg sodium carbonate, 897 mg sodium hydrogen carbonate, 60 mg sodium azide, 300 ml distilled water) and incubated in the wells of a microtitre plate for 2 days at 4°C. The wells are washed three times with PBS containing Tween 20 (Sigma, 0.1 %). Residual adsorption sites on the plate are saturated by incubation with 100 µl of PBS/Tween 20 for 1 h. […] The substrate gives a yellow coloration which is measured with a colorimeter (Titertek Multiskan) at a wave length of 405 nm after 60 min.
(§4) The assay is carried out as described in the following. […] The incubation mixture is then transferred to R-(-)-oxaprotiline-mucin coated microtitre plates and the relative concentration of antibody not engaged in immunocomplexes with the soluble compound is determined as described in example 1.4.
(§5) The capacity of free R-(-)-oxaprotiline and of a number of compounds which are structurally analogous to R-(-)-oxaprotiline to inhibit the binding of the monoclonal antibodies of the invention to the antigen is determined in an inhibition enzyme immunoassay essentially as described in example 3.2. […]

[2] = molecular target: MAb 1219S78.6
Procedure: as §1, §2, §3, §4, §5

[3] = molecular target: MAb 1225S93.2
Procedure: as §1, §2, §3, §4, §5

[4] = molecular target: MAb 1228P63.1
Procedure: as §1, §2, §3, §4, §5

Work on `CNCCCC12CCC(c3ccccc31)c1ccccc12` [compound 6, 1-(3-methylamino-propyl)-dibenzo[b,e]-bicyclo[2.2.2]-octadiene-hydro-chloride] yielded an IC50 [1] of 2.55 nM, an IC50 [2] of 0.315 nM and an IC50 [3] of 0.44 nM. The IC50 [4] was 1.05 nM.
